Source: the supplement of paper PMC8728848
This is one part of the list.

What was measured:
Experiment in all cases: glycan array binding signal (z-score within array); higher = stronger binding
Details in all cases: glycan notation: IUPAC condensed, linker removed
[1] = target: Fuc(a1-3)[Gal3S(b1-4)]GlcNAc
Method in brief: (§1)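 Columns mapping to the same glycan were averaged after glycan names were converted to IUPAC-condensed notation. The data come from 3228 arrays in the Consortium for Functional Glycomics database, limited to those with an available protein sequence. Binding is reported as a within-array Z-score averaged across arrays of one protein sequence and across linkers.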

[2] = target: Fuc(a1-3)[Gal3S(b1-4)]GlcNAc6S
Method in brief: as §1

[3] = target: Fuc(a1-3)[GalNAc(b1-4)]GlcNAc
Method in brief: as §1

Fuc(a1-4)GlcNAc = target: Fuc(a1-4)GlcNAc
Method in brief: as §1

Fuc(b1-3)GlcNAc = target: Fuc(b1-3)GlcNAc
Method in brief: as §1

Gal(a1-2)Gal = target: Gal(a1-2)Gal
Method in brief: as §1

Gal(a1-3)Gal = target: Gal(a1-3)Gal
Method in brief: as §1

Gal(a1-3)Gal(b1-3)GlcNAc = target: Gal(a1-3)Gal(b1-3)GlcNAc
Method in brief: as §1

[4] = target: Gal(a1-3)Gal(b1-3)GlcNAc(b1-2)Man(a1-3)[Gal(a1-3)Gal(b1-3)GlcNAc(b1-2)Man(a1-6)]Man(b1-4)GlcNAc(b1-4)GlcNAc
Method in brief: as §1

[5] = target: Gal(a1-3)Gal(b1-3)[Fuc(a1-4)]GlcNAc(b1-2)Man(a1-3)[Gal(a1-3)Gal(b1-3)[Fuc(a1-4)]GlcNAc(b1-2)Man(a1-6)]Man(b1-4)GlcNAc(b1-4)GlcNAc
Method in brief: as §1

Gal(a1-3)Gal(b1-4)Glc = target: Gal(a1-3)Gal(b1-4)Glc
Method in brief: as §1

Gal(a1-3)Gal(b1-4)GlcNAc = target: Gal(a1-3)Gal(b1-4)GlcNAc
Method in brief: as §1

[6] = target: Gal(a1-3)Gal(b1-4)GlcNAc(b1-3)GalNAc
Method in brief: as §1

[7] = target: Gal(a1-3)Gal(b1-4)[Fuc(a1-3)]GlcNAc
Method in brief: as §1

[8] = target: Gal(a1-3)Gal(b1-4)[Fuc(a1-3)]GlcNAc(b1-2)Man(a1-3)[Gal(a1-3)Gal(b1-4)[Fuc(a1-3)]GlcNAc(b1-2)Man(a1-6)]Man(b1-4)GlcNAc(b1-4)GlcNAc
Method in brief: as §1

Gal(a1-3)GalNAc = target: Gal(a1-3)GalNAc
Method in brief: as §1

[9] = target: Gal(a1-3)[Gal(a1-4)]Gal(b1-4)GlcNAc
Method in brief: as §1

[10] = target: Gal(a1-4)Gal(b1-3)GlcNAc(b1-2)Man(a1-3)[Gal(a1-4)Gal(b1-3)GlcNAc(b1-2)Man(a1-6)]Man(b1-4)GlcNAc(b1-4)GlcNAc
Method in brief: as §1

Gal(a1-4)Gal(b1-4)Glc = target: Gal(a1-4)Gal(b1-4)Glc
Method in brief: as §1

Gal(a1-4)Gal(b1-4)GlcNAc = target: Gal(a1-4)Gal(b1-4)GlcNAc
Method in brief: as §1

[11] = target: Gal(a1-4)Gal(b1-4)GlcNAc(b1-2)Man(a1-3)[Gal(a1-4)Gal(b1-4)GlcNAc(b1-2)Man(a1-6)]Man(b1-4)GlcNAc(b1-4)GlcNAc
Method in brief: as §1

[12] = target: Gal(a1-4)Gal(b1-4)GlcNAc(b1-3)Gal(b1-4)Glc
Method in brief: as §1

Gal(a1-4)GlcNAc = target: Gal(a1-4)GlcNAc
Method in brief: as §1

Gal(a1-6)Glc = target: Gal(a1-6)Glc
Method in brief: as §1

Gal(b1-2)Gal = target: Gal(b1-2)Gal
Method in brief: as §1

Gal(b1-3)Gal = target: Gal(b1-3)Gal
Method in brief: as §1

Gal(b1-3)Gal(b1-4)GlcNAc = target: Gal(b1-3)Gal(b1-4)GlcNAc
Method in brief: as §1

[13] = target: Gal(b1-3)Gal(b1-4)GlcNAc(b1-2)Man(a1-3)[Gal(b1-3)Gal(b1-4)GlcNAc(b1-2)Man(a1-6)]Man(b1-4)GlcNAc(b1-4)GlcNAc
Method in brief: as §1

Gal(b1-3)GalNAc = target: Gal(b1-3)GalNAc
Method in brief: as §1

[14] = target: Gal(b1-3)GalNAc(a1-3)[Fuc(a1-2)]Gal(b1-4)Glc
Method in brief: as §1

[15] = target: Gal(b1-3)GalNAc(a1-3)[Fuc(a1-2)]Gal(b1-4)GlcNAc
Method in brief: as §1

[16] = target: Gal(b1-3)GalNAc(b1-3)Gal(a1-4)Gal(b1-4)Glc
Method in brief: as §1

[17] = target: Gal(b1-3)GalNAc(b1-4)Gal(b1-4)Glc
Method in brief: as §1

[18] = target: Gal(b1-3)GalNAc(b1-4)[Neu5Ac(a2-3)]Gal(b1-4)Glc
Method in brief: as §1

Gal(b1-3)GlcNAc = target: Gal(b1-3)GlcNAc
Method in brief: as §1

[19] = target: Gal(b1-3)GlcNAc(a1-6)Gal(b1-4)GlcNAc
Method in brief: as §1

[20] = target: Gal(b1-3)GlcNAc(b1-2)Man(a1-3)[Gal(b1-3)GlcNAc(b1-2)Man(a1-6)]Man(b1-4)GlcNAc(b1-4)GlcNAc
Method in brief: as §1

[21] = target: Gal(b1-3)GlcNAc(b1-2)Man(a1-3)[Gal(b1-3)GlcNAc(b1-2)Man(a1-6)]Man(b1-4)GlcNAc(b1-4)[Fuc(a1-6)]GlcNAc
Method in brief: as §1

[22] = target: Gal(b1-3)GlcNAc(b1-3)Gal(b1-3)GlcNAc
Method in brief: as §1

[23] = target: Gal(b1-3)GlcNAc(b1-3)Gal(b1-4)Glc
Method in brief: as §1

[24] = target: Gal(b1-3)GlcNAc(b1-3)Gal(b1-4)GlcNAc
Method in brief: as §1

[25] = target: Gal(b1-3)GlcNAc(b1-3)Gal(b1-4)GlcNAc(b1-6)[Gal(b1-3)GlcNAc(b1-3)]Gal(b1-4)Glc
Method in brief: as §1

[26] = target: Gal(b1-3)GlcNAc(b1-3)Gal(b1-4)[Fuc(a1-3)]GlcNAc(b1-6)[Gal(b1-3)GlcNAc(b1-3)]Gal(b1-4)Glc
Method in brief: as §1

[27] = target: Gal(b1-3)GlcNAc(b1-3)GalNAc
Method in brief: as §1

[28] = target: Gal(b1-3)GlcNAc(b1-6)Gal(b1-4)GlcNAc
Method in brief: as §1

[29] = target: Gal(b1-3)[Fuc(a1-4)]GlcNAc
Method in brief: as §1

[30] = target: Gal(b1-3)[Fuc(a1-4)]GlcNAc(b1-2)Man(a1-3)[Gal(b1-3)[Fuc(a1-4)]GlcNAc(b1-2)Man(a1-6)]Man(b1-4)GlcNAc(b1-4)GlcNAc
Method in brief: as §1

[31] = target: Gal(b1-3)[Fuc(a1-4)]GlcNAc(b1-2)Man(a1-3)[Gal(b1-3)[Fuc(a1-4)]GlcNAc(b1-2)Man(a1-6)]Man(b1-4)GlcNAc(b1-4)[Fuc(a1-6)]GlcNAc
Method in brief: as §1

[32] = target: Gal(b1-3)[Fuc(a1-4)]GlcNAc(b1-3)Gal(b1-3)[Fuc(a1-4)]GlcNAc
Method in brief: as §1

[33] = target: Gal(b1-3)[Fuc(a1-4)]GlcNAc(b1-3)Gal(b1-4)GlcNAc
Method in brief: as §1

[34] = target: Gal(b1-3)[Fuc(a1-4)]GlcNAc(b1-3)Gal(b1-4)[Fuc(a1-3)]GlcNAc
Method in brief: as §1

[35] = target: Gal(b1-3)[GlcNAc(b1-6)]GalNAc
Method in brief: as §1

[36] = target: Gal(b1-3)[Neu5Ac(a2-6)]GalNAc
Method in brief: as §1

[37] = target: Gal(b1-3)[Neu5Ac(a2-6)]GlcNAc(b1-6)Gal(b1-4)Glc
Method in brief: as §1

[38] = target: Gal(b1-3)[Neu5Ac(b2-6)]GalNAc
Method in brief: as §1

[39] = target: Gal(b1-4)GalNAc(a1-3)[Fuc(a1-2)]Gal(b1-4)GlcNAc
Method in brief: as §1

[40] = target: Gal(b1-4)GalNAc(b1-3)[Fuc(a1-2)]Gal(b1-4)GlcNAc
Method in brief: as §1

Gal(b1-4)Glc = target: Gal(b1-4)Glc
Method in brief: as §1

Gal(b1-4)Glc6S = target: Gal(b1-4)Glc6S
Method in brief: as §1

Gal(b1-4)GlcNAc = target: Gal(b1-4)GlcNAc
Method in brief: as §1

B1: SRS6 (Toxoplasma gondii), Q9NH12 (protein)
chain: MARTGSMQQRRGGFQTTARMLMAVCVSGVLLLSSGPSSANKLTEGQQNQNSGPGAATQEGPTIEGAVAKCVLKTTAAENGSSRAKNTTGLTLSKENLVVSLQCSGEKNAIVPKDQKKVCSAAPNAKVADCKGADTDKQVTLKSLLGTSGDIQWEKTIVSTDNKGEVMTLKIKESELPLFDKAFFVGCEEDKAQTRTSQATECKVNVSVKARPSTVGENNVVTCAYGKDSNPRPLEVEMSADNDTLTIDCGTDGSLKPTKYTEEFCVTDNSQLESCTTKKFSEILPTFLPSWWVSDSQNGSAKLTIPESGFPEEQQQFRLGCVPKKTTQSPQANPSVKTEKEEGAQNTDASTSNCSVIVTVKASNFSSLASSIAPTAAVAGGAAALTGFLVGSF
B1 was tested, and the “glycan array binding signal (z-score)” value [1] was 1.04, the “glycan array binding signal (z-score)” value [2] was 0.773 and the “glycan array binding signal (z-score)” value [3] was -0.203. The “glycan array binding signal (z-score)” value (Fuc(a1-4)GlcNAc) was -0.014, the “glycan array binding signal (z-score)” value (Fuc(b1-3)GlcNAc) was 0.841 and the “glycan array binding signal (z-score)” value (Gal(a1-2)Gal) was -1.97. For the same binder, the “glycan array binding signal (z-score)” value (Gal(a1-3)Gal) was 0.351, the “glycan array binding signal (z-score)” value (Gal(a1-3)Gal(b1-3)GlcNAc) was -0.102 and the “glycan array binding signal (z-score)” value [4] was -1.1. For the same binder, the “glycan array binding signal (z-score)” value [5] was -0.513, the “glycan array binding signal (z-score)” value (Gal(a1-3)Gal(b1-4)Glc) was 0.301 and the “glycan array binding signal (z-score)” value (Gal(a1-3)Gal(b1-4)GlcNAc) was -0.113. For the same binder, the “glycan array binding signal (z-score)” value [6] was 0.006, the “glycan array binding signal (z-score)” value [7] was -0.047 and the “glycan array binding signal (z-score)” value [8] was 0.436. The “glycan array binding signal (z-score)” value (Gal(a1-3)GalNAc) was -0.288, the “glycan array binding signal (z-score)” value [9] was -0.103 and the “glycan array binding signal (z-score)” value [10] was 0.315. For the same binder, the “glycan array binding signal (z-score)” value (Gal(a1-4)Gal(b1-4)Glc) was -0.732, the “glycan array binding signal (z-score)” value (Gal(a1-4)Gal(b1-4)GlcNAc) was -0.345 and the “glycan array binding signal (z-score)” value [11] was -0.336. For the same binder, the “glycan array binding signal (z-score)” value [12] was 0.399, the “glycan array binding signal (z-score)” value (Gal(a1-4)GlcNAc) was 0.185 and the “glycan array binding signal (z-score)” value (Gal(a1-6)Glc) was -0.184. The “glycan array binding signal (z-score)” value (Gal(b1-2)Gal) was 0.732, the “glycan array binding signal (z-score)” value (Gal(b1-3)Gal) was 0.202 and the “glycan array binding signal (z-score)” value (Gal(b1-3)Gal(b1-4)GlcNAc) was -0.549. The “glycan array binding signal (z-score)” value [13] was -0.557, the “glycan array binding signal (z-score)” value (Gal(b1-3)GalNAc) was -0.563 and the “glycan array binding signal (z-score)” value [14] was -0.134. For the same binder, the “glycan array binding signal (z-score)” value [15] was 0.286, the “glycan array binding signal (z-score)” value [16] was -0.397 and the “glycan array binding signal (z-score)” value [17] was -1.59. The “glycan array binding signal (z-score)” value [18] was 0.417, the “glycan array binding signal (z-score)” value (Gal(b1-3)GlcNAc) was -0.316 and the “glycan array binding signal (z-score)” value [19] was -0.152. The “glycan array binding signal (z-score)” value [20] was 0.296, the “glycan array binding signal (z-score)” value [21] was 1.28 and the “glycan array binding signal (z-score)” value [22] was -0.195. For the same binder, the “glycan array binding signal (z-score)” value [23] was -0.592, the “glycan array binding signal (z-score)” value [24] was -0.083 and the “glycan array binding signal (z-score)” value [25] was -0.007. The “glycan array binding signal (z-score)” value [26] was -0.71, the “glycan array binding signal (z-score)” value [27] was 1.44 and the “glycan array binding signal (z-score)” value [28] was -0.783. For the same binder, the “glycan array binding signal (z-score)” value [29] was -0.34, the “glycan array binding signal (z-score)” value [30] was 0.947 and the “glycan array binding signal (z-score)” value [31] was 0.922. The “glycan array binding signal (z-score)” value [32] was -0.067, the “glycan array binding signal (z-score)” value [33] was 0.535 and the “glycan array binding signal (z-score)” value [34] was 0.447. For the same binder, the “glycan array binding signal (z-score)” value [35] was -0.607, the “glycan array binding signal (z-score)” value [36] was -0.41 and the “glycan array binding signal (z-score)” value [37] was -0.201. For the same binder, the “glycan array binding signal (z-score)” value [38] was 0.543, the “glycan array binding signal (z-score)” value [39] was -0.478 and the “glycan array binding signal (z-score)” value [40] was 0.295. The “glycan array binding signal (z-score)” value (Gal(b1-4)Glc) was -0.789, the “glycan array binding signal (z-score)” value (Gal(b1-4)Glc6S) was 0.04 and the “glycan array binding signal (z-score)” value (Gal(b1-4)GlcNAc) was -0.254.
